Experimental data reported in patent US20080210905A1, “ORGANIC-ELECTROLUMINESCENCE-MATERIAL-CONTAINING SOLUTION, METHOD FOR SYNTHESIZING ORGANIC ELECTROLUMINESCENCE MATERIAL, COMPOUND SYNTHESIZED BY THE METHOD, METHOD FOR FORMING THIN FILM OF ORGANIC ELECTROLUMINESCENCE MATERIAL, THIN FILM OF ORGANIC ELECTROLUMINESCENCE MATERIAL AND ORGANIC …” (Idemitsu Kosan Co., Ltd., priority 2006, published 2008).

Experiment: Organic electroluminescence device with spin-coated emitting layer (host and BD-1)

In the case of c1ccc(-c2ccccc2-c2ccc3c(-c4ccccc4)c4ccccc4c(-c4ccccc4)c3c2)cc1 [compound (a)], the luminescence efficiency (device with compound as host of emitting layer, host:BD-1 20:1 (wt/wt), 50 nm, blue emission) is reported as 4.1 cd/A and the “time elapsed until the luminescent intensity decreased to half” value (initial luminescence intensity 1000 cd/m^2, compound as host with BD-1) is reported as 460 h.
